Experimental data: PubChem BioAssay AID2417 (National Center for Advancing Translational Sciences (NCATS), 2010)
Among all 140,000 compounds or so, about 4,300 (3.1%) were called active. The shares of active, inactive and inconclusive entries below differ from those in the screen.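 The calls were made as follows: active = readout at or below -70, meaning at least 70% loss of cells showing the perinucleolar compartment, a nuclear body marking cancer cells; inconclusive = readout between -30 and a set limit; inactive = the rest.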

assay: High Content Assay for Compounds that inhibit the Assembly of the Perinucleolar Compartment; settings: PC3M PTB-GFP, PNC prevalence imaging, 16 h; at 10 µM; stronger effect = lower value;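 also: plate controls were DMSO wells for no effect and camptothecin positive control wells for full effect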
Summary of the method: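 PC3M cells stably expressing PTB-GFP, 750–1000 cells/well, treated 16 h at 37 °C with compound (23 nl of library stock), in duplicate. After paraformaldehyde fixation and Hoechst stain, imaged at 20x; PNC prevalence scored by image analysis.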

Row | SMILES | activity change (PNC), negative = inhibition
1 | CCN(c1ccccc1)S(=O)(=O)c1ccc(N)cc1 | inconclusive: -47.4%
2 | Cc1cc(S(=O)(=O)Nc2ccc(N(C)C)cc2)c(C)s1 | inactive: -23.4%
3 | CSc1ccc(S(=O)(=O)Nc2ccc(F)cc2)cc1 | inconclusive: -37%
4 | NC(=O)c1c(N)sc(=S)n1-c1ccccc1 | inconclusive: -37%
5 | COc1ccc(-c2nsc(SCC(=O)Nc3cc(C)on3)n2)cc1 | inconclusive: -60.7%
6 | CC1CN(C(=O)C2CC2)C(C)CN1C(=O)C1CC1 (stereo not given) | inconclusive: -54.9%
7 | Cc1ccc(CNC(=S)Nc2ccc(C)c([N+](=O)[O-])c2)cc1 | inactive: -9.65%
8 | O=C(COC(=O)/C=C/c1ccc(Cl)cc1Cl)NCCC1=CCCCC1 | inconclusive: -30.7%
9 | O=C(Nc1ccc2c(c1)CCC2)c1ccccc1F | inactive: 25.9%
10 | O=[N+]([O-])c1cc2c(cc1/C=N/n1c(-c3ccccn3)n[nH]c1=S)OCO2 | inconclusive: -65.9%
11 | Cc1onc(-c2ccccc2Cl)c1C(=O)Nc1ccc(F)c(F)c1 | inactive: -26.6%
12 | CCn1c(SCC(=O)Nc2nccs2)nnc1-c1cc2cccc(OC)c2o1 | inactive: -8.28%
13 | COc1ccc(OC)c(NS(=O)(=O)c2ccc(SC)cc2)c1 | inactive: 28.5%
14 | Cc1ccc(S(=O)(=O)N(C)c2ccc(OCC(=O)Nc3nc4ccccc4s3)cc2)cc1 | inconclusive: -47.8%
15 | COc1ccc(-c2c3c(=O)n(C)c(=O)n(C)c3cn2N2CCOCC2)cc1 | inconclusive: -45.7%
16 | CC(=O)Oc1ccc2c(=O)c(N3C(=O)c4ccccc4C3=O)c(C)oc2c1 | active: -91.2%
17 | Cn1c(SCC(=O)Nc2ccc(N3CCOCC3)c(Cl)c2)nnc1C(O)c1ccccc1 (stereo not given) | inconclusive: -30.6%
18 | CC1(C)CC(=O)N(CC(=O)O)c2ccccc2S1 | inactive: -26.7%
19 | O=c1cc(CSc2nnnn2-c2ccccc2)nc2scc(-c3ccccc3)n12 | inconclusive: -61%
20 | COC(C(=O)Nc1ccc(C(C)=O)cc1)c1ccccc1 (stereo not given) | active: -124%
21 | Cc1ccc(C)n1NC(=O)c1ccco1 | inconclusive: -66%
22 | CCOC(=O)/C(C#N)=C1/C=Nc2ccccc2N1 | inconclusive: -45.5%
23 | COc1ccc(S(=O)(=O)N2CCCCCC2)cc1N(C)S(=O)(=O)c1ccc(Cl)cc1 | inactive: -28.7%

Row | SMILES | activity change (PNC), negative = inhibition
24 | CCOC(=O)C1=C(C)NC(C)=C(C(=O)OCC)C1 | inconclusive: -58.6%
25 | CC(=O)Nc1ccc(S(=O)(=O)NC2=C(N3CCN(c4ccc(F)cc4)CC3)C(=O)c3ccccc3C2=O)cc1 | inactive: 0.574%
26 | CC1CN(C(=O)Cn2cnc3c2c(=O)n(C)c(=O)n3C)CC(C)O1 (stereo not given) | inconclusive: -53.3%
27 | Cc1ccc(NC(=O)C2=C(O)c3sccc3N(C)S2(=O)=O)cc1 | inactive: 5.3%
28 | CCC(C)(C)n1nnnc1C(c1ccc(C)cc1)N1CCCC1 (stereo not given) | inconclusive: -31.1%
29 | CC1=NN(C(=O)c2ccc(Cn3nc(C)c([N+](=O)[O-])c3C)cc2)C(O)(C(F)(F)F)C1 (stereo not given) | inconclusive: -31.8%
30 | CCCCOc1ccc(-c2nc(=S)[nH][nH]2)cc1 | inconclusive: -38.4%
31 | CCN1CCN(CCCCOc2ccccc2F)CC1 | inconclusive: -59%
32 | O=S(=O)(NCc1ccco1)c1ccc2c(c1)Cc1ccccc1-2 | inconclusive: -66.5%
33 | O=C(/C=C/c1ccccc1)Nc1ccc(N2CCCCC2)cc1 | inactive: -8.11%
34 | Brc1ccccc1OCCCN1CCOCC1 | active: -100%
35 | O=C(CSc1nnc(-c2c[nH]c3ccccc23)o1)c1ccc(-c2ccccc2)cc1 | inactive: -10.5%
36 | CCN(CC)S(=O)(=O)c1ccc(C(=O)Nc2c3c(nn2C(C)(C)C)CS(=O)(=O)C3)cc1 | inconclusive: -53.4%
37 | COc1ccccc1N1CCN(C(=O)c2cc3sccc3n2C)CC1 | inactive: 33.6%
38 | CCOCCCN1CC(C(=O)NCCc2ccc(C)cc2)CC1=O (stereo not given) | inconclusive: -42.9%
39 | c1c2c(cc3sc(N4CCOCC4)nc13)OCCO2 | inconclusive: -57.1%
40 | O=C(O)CC(c1ccc(Cl)cc1)N1C(=O)CCC1=O (stereo not given) | inconclusive: -44.3%
41 | O=C(Cc1ccc(Cl)cc1)Nc1cccc(S(=O)(=O)Nc2ccccc2F)c1 | inconclusive: -40.8%
42 | Oc1ccc(/C=C/c2nc(-c3ccccc3O)n(-c3ccccc3)n2)cc1 | inactive: -24.7%
43 | O=C(/C=C/NNC(=O)c1ccccc1)c1ccccc1 | inconclusive: -52.1%
44 | Cc1onc(-c2ccccc2Cl)c1C(=O)N1CCN(C(=O)c2ccco2)CC1 | inactive: -23.6%
45 | COc1cc([N+](=O)[O-])ccc1-c1ccc(C(=O)Nc2ccc(NC(C)=O)cc2)o1 | inactive: 58.2%
46 | Cc1ccc(N(CC(=O)N/N=C/c2cc(C)n(-c3ccccc3C)c2C)S(C)(=O)=O)cc1 | inconclusive: -53.9%

5 entries already listed, arranged by molecular weight, high to low.
Row | SMILES | activity change (PNC), negative = inhibition
17 | Cn1c(SCC(=O)Nc2ccc(N3CCOCC3)c(Cl)c2)nnc1C(O)c1ccccc1 (stereo not given) | inconclusive: -30.6%
45 | COc1cc([N+](=O)[O-])ccc1-c1ccc(C(=O)Nc2ccc(NC(C)=O)cc2)o1 | inactive: 58.2%
32 | O=S(=O)(NCc1ccco1)c1ccc2c(c1)Cc1ccccc1-2 | inconclusive: -66.5%
7 | Cc1ccc(CNC(=S)Nc2ccc(C)c([N+](=O)[O-])c2)cc1 | inactive: -9.65%
9 | O=C(Nc1ccc2c(c1)CCC2)c1ccccc1F | inactive: 25.9%

(cont.)

Row | SMILES | activity change (PNC), negative = inhibition
47 | O=c1c2cccc3c2c(nn1-c1ccccc1)-c1ccccc1-3 | inconclusive: -37.9%
48 | COc1cc(NC(=S)N2CCN(Cc3ccccc3)CC2)cc(OC)c1 | inconclusive: -43.2%
49 | CCCCCOc1ccc(C2C(C(C)=O)=C(C)Nc3ncnn32)cc1OC (stereo not given) | inactive: 2.33%
50 | Cc1nn(-c2cc(N3CCOCC3)ccc2[N+](=O)[O-])c(=O)c2ccccc12 | inconclusive: -32.5%
51 | O=C(Nc1ccc2ccccc2c1)c1cn(-c2ccccc2)nc1-c1cccs1 | inactive: 73.5%
52 | O=C(N/N=C/C(Br)=C\c1ccccc1)c1n[nH]c2c1CCC2 | inconclusive: -72.7%
53 | Cc1ccccc1-n1c(C)cc(/C=N/NC(=O)c2ccncc2)c1C | inactive: -3.26%
54 | Cc1cc(SCC(=O)c2cccs2)nc2ccccc12 | inconclusive: -56.3%
55 | Cc1cc(C(=O)CSc2ccc(Cl)cc2)cc(C)c1OC(=S)N(C)C | inconclusive: -44.5%
56 | CCN(CCC(=O)O)c1ccccc1 | inconclusive: -54.5%
57 | CCc1nc(SCc2nc3ccccc3[nH]2)c2oc3ccccc3c2n1 | inactive: -25.5%
58 | COc1ccc(CNC(=O)CSc2nnc(C)n2-c2ccc(F)cc2)cc1 | inconclusive: -32.3%
59 | COC(=O)c1ccc(OCc2cc(=O)n3ccsc3n2)cc1 | inconclusive: -47.3%
60 | CN1CCN(C(=S)Nc2ccccc2Cl)CC1 | inconclusive: -31.2%
61 | CCC(=S)/C=C1\Sc2ccc3ccccc3c2N1CCCS(=O)(=O)O | inconclusive: -56.9%
62 | COc1ccc(/C(C)=N/OC/C(O)=C(\C#N)c2nc3ccccc3[nH]2)c(OC)c1 | inconclusive: -30.5%
63 | CC(C)(C)C(=O)Nc1ccccc1C(=O)Nc1ccccn1 | active: -100%
64 | CCn1c(=O)cc(OCC(=O)N(C)c2ccccc2F)c2ccccc21 | inconclusive: -43.8%
65 | O=C1c2ccc(Oc3ccc4c(c3)C(=O)N(CCCO)C4=O)cc2C(=O)N1CCCO | inactive: -3.77%
66 | CN(C)c1ccc(C2C3C(=O)NC(=O)C3ON2c2ccc(Cl)cc2)cc1 (stereo not given) | inconclusive: -48.8%
67 | CN1C(=O)N(C)C2(c3ccccc3)NC(=O)NC12c1ccccc1 (stereo not given) | inconclusive: -33.8%
68 | Cc1ccc2c(CSc3nc4ccccc4c(=O)n3CCCO)cc(=O)oc2c1C | inactive: -2.33%
69 | CCc1ccccc1NS(=O)(=O)c1ccc(SC)cc1 | inconclusive: -39.3%

Row | SMILES | activity change (PNC), negative = inhibition
70 | CCOc1ccc(C(C)=O)cc1CSc1nnc(-c2cccs2)n1CC1CCCO1 (stereo not given) | inactive: -8.55%
71 | CCOC(=O)N1CCN(C(=O)Nc2ccc(Cl)cc2Cl)CC1 | inconclusive: -38.1%
72 | CC1CCN(c2ccc(C(=O)NCc3ccc4c(c3)OCO4)cc2[N+](=O)[O-])CC1 | inconclusive: -47.5%
73 | CCc1ccc2[nH]c(=O)c(C(c3nnnn3CC3CCCO3)N3CCCc4ccccc43)cc2c1 (stereo not given) | inconclusive: -43.7%
74 | O=C(NC(=S)Nc1ccc(S(=O)(=O)N2CCCC2)cc1)c1cccs1 | inactive: 13.4%
75 | CCOC(=O)Cn1c(=NC(=O)c2cc(-c3cccs3)nc3ccccc23)sc2cc(S(N)(=O)=O)ccc21 | inactive: -10.3%
76 | Clc1ccc(Cn2ncc3c(NCc4ccccc4)ncnc32)cc1 | inconclusive: -47.4%
77 | CCn1c(=NC(=O)CSCC(=O)Nc2nccs2)sc2ccccc21 | inconclusive: -33.6%
78 | Cc1ccccc1C(OCCN(C)C)c1ccccc1 (stereo not given) | inconclusive: -49%
79 | Cc1cc(C)cc(NCC(=O)Nc2c(C)cccc2C)c1 | active: -90.1%
80 | CCCN1C(=O)c2cc(C(=O)O)ccc2C1O (stereo not given) | inconclusive: -37.7%
81 | CCOC(=O)c1cc(NC(=O)Nc2nccs2)c(C)nc1C | inconclusive: -73.8%
82 | Cc1cc(Cl)c(S(=O)(=O)NC2CCCCC2)cc1OCC(=O)Nc1nncs1 | active: -119%
83 | COC(=O)c1sc2ccccc2c1-n1cccc1C(=O)C(=O)Nc1ccc(OC)cc1 | inactive: -21%
84 | COc1ccc(-n2sc3c(c2=S)-c2cc(OC)ccc2NC3(C)C)cc1 | inactive: -16.4%
85 | COc1cc(NC(=O)CSc2nnc(Cn3nnc4ccccc43)n2C)cc(OC)c1 | inconclusive: -44.6%
86 | Cc1[nH]c(=O)cc2ccccc12 | inconclusive: -79.1%
87 | O=C(Nc1ccccc1-c1nnn(CC(=O)N2CCN(c3ccccc3)CC2)n1)c1cccs1 | inconclusive: -41.2%
88 | N#CC12C(N)=NC3(OCCO3)C1(C#N)C1=C(CCC1)NC2c1ccccc1 (stereo not given) | inactive: -3.21%
89 | CCOC(=O)N1CCN(c2nc(=S)n(-c3ccccc3)c(C)c2C(C)=O)CC1 | inconclusive: -70.8%
90 | COc1ccc(NC(=O)c2ccccc2NC(=O)NC2CCCCC2)cc1 | inconclusive: -31.1%
